Laboratory results as given in paper doi:10.1101/2024.09.13.612963 (bioRxiv, 2024).

Biological target: T1, Miro1-sfGFP-FLAG-I3-01 synthetic cargo (human) (UniProt Q8IXI2)
T1 sequence: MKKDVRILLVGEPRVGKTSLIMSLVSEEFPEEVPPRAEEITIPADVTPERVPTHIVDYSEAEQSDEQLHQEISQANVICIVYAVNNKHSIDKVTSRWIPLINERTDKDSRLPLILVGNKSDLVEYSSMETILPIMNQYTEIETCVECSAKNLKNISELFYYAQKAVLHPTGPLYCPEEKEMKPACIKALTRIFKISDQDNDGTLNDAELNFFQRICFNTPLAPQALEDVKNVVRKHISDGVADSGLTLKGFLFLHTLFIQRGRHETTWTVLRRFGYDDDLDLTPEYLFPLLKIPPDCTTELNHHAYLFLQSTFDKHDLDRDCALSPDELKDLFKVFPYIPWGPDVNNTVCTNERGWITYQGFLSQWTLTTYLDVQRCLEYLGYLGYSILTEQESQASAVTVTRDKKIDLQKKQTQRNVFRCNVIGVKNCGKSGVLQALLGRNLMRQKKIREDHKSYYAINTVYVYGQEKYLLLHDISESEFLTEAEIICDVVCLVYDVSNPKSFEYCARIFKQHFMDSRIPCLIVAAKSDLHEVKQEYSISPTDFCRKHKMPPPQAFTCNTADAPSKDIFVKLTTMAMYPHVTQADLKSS
Assay: affinity purification with mass spectrometry

B1: TRAK2-mScarlet (wild type, truncated before the mitochondrial binding domain) (domain or fragment, UniProt O60296 1-700)
chain: MSQSQNAIFTSPTGEENLMNSNHRDSESITDVCSNEDLPEVELVSLLEEQLPQYRLKVDTLFLYENQDWTQSPHQRQHASDALSPVLAEETFRYMILGTDRVEQMTKTYNDIDMVTHLLAERDRDLELAARIGQALLKRNHVLSEQNESLEEQLGQAFDQVNQLQHELCKKDELLRIVSIASEESETDSSCSTPLRFNESFSLSQGLLQLEMLQEKLKELEEENMALRSKACHIKTETVTYEEKEQQLVSDCVKELRETNAQMSRMTEELSGKSDELIRYQEELSSLLSQIVDLQHKLKEHVIEKEELKLHLQASKDAQRQLTMELHELQDRNMECLGMLHESQEEIKELRSRSGPTAHLYFSQSYGAFTGESLAAEIEGTMRKKLSLDEESSLFKQKAQQKRVFDTVRIANDTRGRSISFPALLPIPGSNRSSVIMTAKPFESGLQQTEDKSLLNQGSSSEEVAGSSQKMGQPGPSGDSDLATALHRLSLRRQNYLSEKQFFAEEWQRKIQVLADQKEGVSGCVTPTESLASLCTTQSEITDLSSASCLRGFMPEKLQIVKPLEGSQTLYHWQQLAQPNLGTILDPRPGVITKGFTQLPGDAIYHISDLEEDEEEGITFQVQQPLEVEEKLSTSKPVTGIFLPPITSAGGPVTVATANPGKCLSCTNSTFTFTTCRILHPSDITQVTPSSGFPSLSCGS
B1 was tested, and the binding was “binds”.

These are yes or no findings as the source states them, for the method shown. Binding seen in cells or lysates may run through a third protein. A yes stands for co-enrichment or nearness to the bait. Other partners may have been found. Tags and fused reporters may be left off the sequences shown.
